Source: paper PMC3608554

Molecular target: T1, PLCg2-V5 (human) (UniProt P16885)
T1 sequence: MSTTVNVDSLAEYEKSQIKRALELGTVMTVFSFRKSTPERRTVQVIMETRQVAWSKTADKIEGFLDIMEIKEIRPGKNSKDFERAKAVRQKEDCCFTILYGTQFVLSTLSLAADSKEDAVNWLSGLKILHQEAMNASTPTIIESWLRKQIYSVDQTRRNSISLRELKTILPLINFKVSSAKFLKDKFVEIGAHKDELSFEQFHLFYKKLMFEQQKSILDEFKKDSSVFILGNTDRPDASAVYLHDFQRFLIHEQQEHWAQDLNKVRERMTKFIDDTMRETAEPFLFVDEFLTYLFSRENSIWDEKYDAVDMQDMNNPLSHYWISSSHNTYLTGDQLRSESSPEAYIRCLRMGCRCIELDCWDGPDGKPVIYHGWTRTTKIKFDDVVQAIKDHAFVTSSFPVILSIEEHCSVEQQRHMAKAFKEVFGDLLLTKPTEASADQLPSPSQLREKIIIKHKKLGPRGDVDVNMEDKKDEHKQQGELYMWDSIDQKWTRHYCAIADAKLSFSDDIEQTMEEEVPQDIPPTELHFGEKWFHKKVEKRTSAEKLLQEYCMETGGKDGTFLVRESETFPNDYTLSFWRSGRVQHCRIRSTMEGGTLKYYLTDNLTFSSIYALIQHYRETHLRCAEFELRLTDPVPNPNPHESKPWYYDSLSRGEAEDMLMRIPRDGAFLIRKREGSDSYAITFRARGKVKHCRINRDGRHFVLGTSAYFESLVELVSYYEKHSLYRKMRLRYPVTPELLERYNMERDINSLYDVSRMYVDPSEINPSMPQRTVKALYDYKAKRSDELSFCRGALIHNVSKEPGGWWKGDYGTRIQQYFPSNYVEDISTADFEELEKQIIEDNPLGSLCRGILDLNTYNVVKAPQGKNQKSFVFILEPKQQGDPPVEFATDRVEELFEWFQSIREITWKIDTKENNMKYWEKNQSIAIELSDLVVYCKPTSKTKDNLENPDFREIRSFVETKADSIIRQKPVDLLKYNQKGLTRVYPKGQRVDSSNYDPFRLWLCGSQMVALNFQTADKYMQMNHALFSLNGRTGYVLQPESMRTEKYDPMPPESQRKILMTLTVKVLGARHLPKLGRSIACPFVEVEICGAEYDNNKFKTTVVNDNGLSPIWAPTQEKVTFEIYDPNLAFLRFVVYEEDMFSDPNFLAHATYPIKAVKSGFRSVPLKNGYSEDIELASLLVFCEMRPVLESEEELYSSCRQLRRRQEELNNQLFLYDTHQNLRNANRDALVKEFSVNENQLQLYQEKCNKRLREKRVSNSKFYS
Assay: co-IP; HEK293T co-expressing the two BANK1 isoforms (FL and D2); IP anti-PLCg2; kinase co-expression not stated

## BANK1 short isoform (D2) lacking the second exon (human)
  binding: binds

These are yes or no findings as the source states them, for the method shown. Binding seen in cells or lysates may run through a third protein. Binding calls can cover weak binding; strength is not graded here. Where a sequence is shown, tags or fusion partners need not be part of it.
